Source: doi:10.1371/journal.pone.0140310, primary screening data, rounded.

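Human melanoma cells were exposed to a pair of drugs for 72 h in 1,536-well plates and read by automated microscopy after fixing and staining. Each value is the count of nuclei relative to DMSO-treated wells, in %, so that 100 equals the control. Every drug was used at one fixed concentration, the higher of two screened. These are primary screening values without error estimates.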 An unselected part of the screen is shown. An entry leaves out what has no value listed here. A dash means that no value is listed here.

Drug key:
OSU-03012: NCC(=O)Nc1ccc(-n2nc(C(F)(F)F)cc2-c2ccc3c(ccc4ccccc43)c2)cc1 at 5 µM
STA-4783: CN(NC(=O)CC(=O)NN(C)C(=S)c1ccccc1)C(=S)c1ccccc1 at 0.03 µM
ENMD-2076: Cc1cc(Nc2cc(N3CCN(C)CC3)nc(/C=C/c3ccccc3)n2)n[nH]1 at 0.2 µM
A-769662: N#Cc1c(O)c2c(-c3ccc(-c4ccccc4O)cc3)csc2[nH]c1=O at 10 µM
SNS-314: O=C(Nc1cccc(Cl)c1)Nc1ncc(CCNc2ncnc3ccsc23)s1 at 0.004 µM
bortezomib: CC(C)C[C@H](NC(=O)[C@H](Cc1ccccc1)NC(=O)c1cnccn1)B(O)O at 0.005 µM
GSK650394: O=C(O)c1ccc(-c2c[nH]c3ncc(-c4ccccc4)cc23)cc1C1CCCC1 at 0.8 µM
temozolomide: Cn1nnc2c(C(N)=O)ncn2c1=O at 10 µM
cediranib: COc1cc2c(Oc3ccc4[nH]c(C)cc4c3F)ncnc2cc1OCCCN1CCCC1 at 2 µM
KU-55933: O=c1cc(-c2cccc3c2Sc2ccccc2S3)oc(N2CCOCC2)c1 at 5 µM
everolimus: CO[C@H]1C[C@@H]2CC[C@@H](C)[C@@](O)(O2)C(=O)C(=O)N2CCCC[C@H]2C(=O)O[C@H]([C@H](C)C[C@@H]2CC[C@@H](OCCO)[C@H](OC)C2)CC(=O)[C@H](C)/C=C(\C)[C@@H](O)[C@@H](OC)C(=O)[C@H](C)C[C@H](C)/C=C/C=C/C=C/1C at 0.1 µM

{"drugs": "cediranib and SNS-314", "COLO 792": 54.9, "COLO 800": 40.4}
{"drugs": "STA-4783 and OSU-03012", "COLO 792": 10.8, "COLO 800": 15.2}
{"drugs": "cediranib and A-769662", "COLO 792": 76.8, "COLO 800": 89.3}
{"drugs": "bortezomib and everolimus", "COLO 792": 26.4, "COLO 800": 47.0}
{"drugs": "ENMD-2076 and A-769662", "COLO 792": 79.1, "COLO 800": 122}
{"drugs": "ENMD-2076 and cediranib", "COLO 792": 64.8, "COLO 800": 38.2}
{"drugs": "ENMD-2076 and STA-4783", "COLO 792": 27.6, "COLO 800": 6.2}
{"drugs": "STA-4783 and GSK650394", "COLO 792": 23.4, "COLO 800": 17.5}
{"drugs": "GSK650394 and KU-55933", "COLO 792": 106, "COLO 800": 106}
{"drugs": "bortezomib and OSU-03012", "COLO 792": 27.8, "COLO 800": 37.9}
{"drugs": "bortezomib and KU-55933", "COLO 792": 24.1}
{"drugs": "GSK650394 and A-769662", "COLO 792": 95.8, "COLO 800": 78.0}
{"drugs": "ENMD-2076 and everolimus", "COLO 792": 36.6, "COLO 800": 52.5}
{"drugs": "KU-55933 and SNS-314", "COLO 792": 77.0, "COLO 800": 69.2}
{"drugs": "OSU-03012 and temozolomide", "COLO 792": 89.7, "COLO 800": 50.9}
{"drugs": "GSK650394 and bortezomib", "COLO 792": 52.9, "COLO 800": 56.1}
{"drugs": "ENMD-2076 and SNS-314", "COLO 792": 52.9}
{"drugs": "everolimus and SNS-314", "COLO 792": 42.2, "COLO 800": 46.1}
{"drugs": "everolimus and KU-55933", "COLO 792": 48.2, "COLO 800": 58.8}
{"drugs": "cediranib and KU-55933", "COLO 792": 79.1, "COLO 800": 96.3}
{"drugs": "STA-4783 and everolimus", "COLO 792": 16.6, "COLO 800": 15.5}
{"drugs": "GSK650394 and cediranib", "COLO 792": 62.1, "COLO 800": 67.4}
{"drugs": "temozolomide and everolimus", "COLO 792": 34.6, "COLO 800": 61.3}
{"drugs": "KU-55933 and OSU-03012", "COLO 792": 58.3, "COLO 800": 74.6}
{"drugs": "OSU-03012 and cediranib", "COLO 792": 56.0, "COLO 800": 35.2}
{"drugs": "STA-4783 and KU-55933", "COLO 792": 24.7, "COLO 800": 16.9}
{"drugs": "SNS-314 and bortezomib", "COLO 792": 22.1, "COLO 800": 36.7}
{"drugs": "STA-4783 and A-769662", "COLO 792": 19.0}
{"drugs": "KU-55933 and temozolomide", "COLO 792": 111, "COLO 800": 80.9}
{"drugs": "STA-4783 and SNS-314", "COLO 792": 22.6, "COLO 800": 14.8}
{"drugs": "A-769662 and KU-55933", "501mel": 98.1, "A375": 148}
{"drugs": "ENMD-2076 and OSU-03012", "COLO 792": 80.2, "COLO 800": 34.0}
{"drugs": "everolimus and cediranib", "COLO 792": 44.5, "COLO 800": 37.5}
{"drugs": "bortezomib and ENMD-2076", "COLO 792": 21.8, "COLO 800": 47.8}

Repeated from the top, 4 entries:

| Drugs | 501mel | A375 | COLO 792 | COLO 800 |
|---|---|---|---|---|
| cediranib and SNS-314 | - | - | 54.9 | 40.4 |
| STA-4783 and OSU-03012 | - | - | 10.8 | 15.2 |
| cediranib and A-769662 | - | - | 76.8 | 89.3 |
| bortezomib and everolimus | - | - | 26.4 | 47.0 |